# Test results from the supplement of paper PMC10849652.
# Protein sequences, listed by entry. Tags and fused reporters are not part of them. Lines headed by an entry give the natural chain unless they say otherwise; changes in a name come on top.
# UniProt O00154: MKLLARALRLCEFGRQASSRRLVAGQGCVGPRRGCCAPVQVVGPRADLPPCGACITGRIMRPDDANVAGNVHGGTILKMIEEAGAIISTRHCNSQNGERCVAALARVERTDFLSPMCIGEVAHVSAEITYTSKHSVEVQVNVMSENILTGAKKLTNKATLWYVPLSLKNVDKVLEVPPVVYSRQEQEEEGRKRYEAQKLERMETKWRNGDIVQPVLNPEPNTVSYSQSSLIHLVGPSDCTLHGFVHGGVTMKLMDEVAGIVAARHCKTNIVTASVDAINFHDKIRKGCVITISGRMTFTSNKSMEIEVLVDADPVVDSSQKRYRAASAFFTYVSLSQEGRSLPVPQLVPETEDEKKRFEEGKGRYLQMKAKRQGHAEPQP
# UniProt Q9UKA4: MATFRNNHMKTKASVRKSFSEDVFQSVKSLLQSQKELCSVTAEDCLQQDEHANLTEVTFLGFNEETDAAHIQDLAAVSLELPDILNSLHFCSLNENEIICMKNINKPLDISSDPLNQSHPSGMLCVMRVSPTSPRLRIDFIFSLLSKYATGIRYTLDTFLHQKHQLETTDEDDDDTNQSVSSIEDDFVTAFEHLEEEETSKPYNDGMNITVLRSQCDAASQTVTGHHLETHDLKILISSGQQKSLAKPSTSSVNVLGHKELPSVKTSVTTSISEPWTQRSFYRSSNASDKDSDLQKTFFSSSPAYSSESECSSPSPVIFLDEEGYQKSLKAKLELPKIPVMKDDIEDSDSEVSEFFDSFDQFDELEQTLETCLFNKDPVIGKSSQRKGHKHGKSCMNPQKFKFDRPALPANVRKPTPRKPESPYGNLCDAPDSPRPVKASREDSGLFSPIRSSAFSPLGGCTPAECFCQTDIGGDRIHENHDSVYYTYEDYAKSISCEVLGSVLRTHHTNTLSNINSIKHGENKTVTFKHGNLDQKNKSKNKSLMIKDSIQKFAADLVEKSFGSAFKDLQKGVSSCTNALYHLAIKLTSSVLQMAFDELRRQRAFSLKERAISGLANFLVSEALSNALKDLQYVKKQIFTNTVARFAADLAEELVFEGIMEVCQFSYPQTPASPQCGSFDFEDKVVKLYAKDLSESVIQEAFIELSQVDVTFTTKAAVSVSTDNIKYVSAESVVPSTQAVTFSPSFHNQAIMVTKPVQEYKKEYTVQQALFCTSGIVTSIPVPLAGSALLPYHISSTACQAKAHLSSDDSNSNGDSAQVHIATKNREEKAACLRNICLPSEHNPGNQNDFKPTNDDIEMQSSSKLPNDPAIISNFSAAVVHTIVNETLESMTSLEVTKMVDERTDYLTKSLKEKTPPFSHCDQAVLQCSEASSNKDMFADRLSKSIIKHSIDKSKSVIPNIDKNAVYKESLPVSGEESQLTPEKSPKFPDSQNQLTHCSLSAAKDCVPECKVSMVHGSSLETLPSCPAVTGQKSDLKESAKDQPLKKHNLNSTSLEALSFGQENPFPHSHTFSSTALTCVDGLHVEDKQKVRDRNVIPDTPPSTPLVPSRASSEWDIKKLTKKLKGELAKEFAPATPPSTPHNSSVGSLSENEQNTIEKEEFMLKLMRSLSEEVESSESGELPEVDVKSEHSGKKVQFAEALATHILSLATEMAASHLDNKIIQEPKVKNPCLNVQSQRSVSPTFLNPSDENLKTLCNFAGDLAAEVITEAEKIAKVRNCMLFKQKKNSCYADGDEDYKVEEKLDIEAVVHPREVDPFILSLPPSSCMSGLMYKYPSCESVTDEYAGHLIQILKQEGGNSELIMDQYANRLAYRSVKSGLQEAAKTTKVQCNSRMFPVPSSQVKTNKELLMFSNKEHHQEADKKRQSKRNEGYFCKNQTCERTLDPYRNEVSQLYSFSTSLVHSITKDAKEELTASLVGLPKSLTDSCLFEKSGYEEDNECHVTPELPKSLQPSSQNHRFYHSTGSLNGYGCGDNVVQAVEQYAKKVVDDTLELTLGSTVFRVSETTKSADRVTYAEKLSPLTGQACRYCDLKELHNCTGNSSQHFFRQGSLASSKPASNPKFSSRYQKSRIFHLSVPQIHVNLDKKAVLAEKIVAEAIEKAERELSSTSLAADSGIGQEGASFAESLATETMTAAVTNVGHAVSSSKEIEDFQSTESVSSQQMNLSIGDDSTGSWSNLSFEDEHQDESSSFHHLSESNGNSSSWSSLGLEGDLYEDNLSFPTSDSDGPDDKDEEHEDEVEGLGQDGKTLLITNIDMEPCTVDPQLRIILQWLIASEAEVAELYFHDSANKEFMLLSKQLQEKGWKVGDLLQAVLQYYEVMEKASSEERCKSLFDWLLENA
# UniProt Q02952: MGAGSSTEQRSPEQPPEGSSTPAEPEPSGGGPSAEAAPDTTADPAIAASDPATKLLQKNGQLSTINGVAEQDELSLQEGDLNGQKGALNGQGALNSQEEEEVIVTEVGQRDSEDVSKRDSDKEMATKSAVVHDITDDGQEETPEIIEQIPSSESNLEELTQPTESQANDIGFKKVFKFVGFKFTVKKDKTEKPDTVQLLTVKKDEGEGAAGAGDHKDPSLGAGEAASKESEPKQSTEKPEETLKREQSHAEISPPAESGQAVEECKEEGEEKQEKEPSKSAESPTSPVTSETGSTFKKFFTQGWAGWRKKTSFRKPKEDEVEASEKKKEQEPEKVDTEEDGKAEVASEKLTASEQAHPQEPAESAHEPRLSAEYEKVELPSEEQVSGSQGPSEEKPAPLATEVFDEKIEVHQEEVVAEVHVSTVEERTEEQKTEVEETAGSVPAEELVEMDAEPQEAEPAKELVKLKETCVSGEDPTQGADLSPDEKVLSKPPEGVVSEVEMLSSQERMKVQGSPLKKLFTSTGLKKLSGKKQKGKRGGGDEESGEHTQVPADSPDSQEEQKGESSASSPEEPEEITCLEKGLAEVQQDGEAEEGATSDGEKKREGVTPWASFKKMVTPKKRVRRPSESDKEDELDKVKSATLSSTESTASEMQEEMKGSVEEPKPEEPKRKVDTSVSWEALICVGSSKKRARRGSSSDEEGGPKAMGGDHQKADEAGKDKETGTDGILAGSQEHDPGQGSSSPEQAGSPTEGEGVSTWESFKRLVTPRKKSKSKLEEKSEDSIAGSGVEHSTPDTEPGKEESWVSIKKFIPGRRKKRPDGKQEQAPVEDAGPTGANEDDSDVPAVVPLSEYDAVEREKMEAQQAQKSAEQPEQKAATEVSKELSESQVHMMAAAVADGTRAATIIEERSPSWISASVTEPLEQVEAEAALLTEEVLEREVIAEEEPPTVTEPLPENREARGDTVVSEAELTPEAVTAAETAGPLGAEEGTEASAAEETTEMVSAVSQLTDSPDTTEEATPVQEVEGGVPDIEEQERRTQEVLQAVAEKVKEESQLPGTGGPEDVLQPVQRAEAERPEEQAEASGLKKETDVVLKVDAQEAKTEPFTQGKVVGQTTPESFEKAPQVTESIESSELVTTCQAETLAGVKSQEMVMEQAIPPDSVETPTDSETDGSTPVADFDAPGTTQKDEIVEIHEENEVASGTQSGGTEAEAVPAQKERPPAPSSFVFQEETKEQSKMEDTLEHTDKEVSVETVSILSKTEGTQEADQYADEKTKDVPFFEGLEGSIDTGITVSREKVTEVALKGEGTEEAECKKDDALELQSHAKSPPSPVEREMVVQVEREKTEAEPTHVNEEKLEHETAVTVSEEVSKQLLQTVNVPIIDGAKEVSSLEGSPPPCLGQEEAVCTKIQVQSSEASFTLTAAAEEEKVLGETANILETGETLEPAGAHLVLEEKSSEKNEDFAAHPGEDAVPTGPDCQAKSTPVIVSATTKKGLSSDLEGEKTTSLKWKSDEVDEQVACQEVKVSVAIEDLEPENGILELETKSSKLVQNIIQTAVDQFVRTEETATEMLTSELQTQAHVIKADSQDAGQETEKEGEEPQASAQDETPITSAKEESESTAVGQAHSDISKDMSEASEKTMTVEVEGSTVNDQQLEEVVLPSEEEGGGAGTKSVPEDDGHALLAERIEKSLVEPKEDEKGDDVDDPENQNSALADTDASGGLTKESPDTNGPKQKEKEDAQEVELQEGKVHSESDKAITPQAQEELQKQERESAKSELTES
# UniProt P30566: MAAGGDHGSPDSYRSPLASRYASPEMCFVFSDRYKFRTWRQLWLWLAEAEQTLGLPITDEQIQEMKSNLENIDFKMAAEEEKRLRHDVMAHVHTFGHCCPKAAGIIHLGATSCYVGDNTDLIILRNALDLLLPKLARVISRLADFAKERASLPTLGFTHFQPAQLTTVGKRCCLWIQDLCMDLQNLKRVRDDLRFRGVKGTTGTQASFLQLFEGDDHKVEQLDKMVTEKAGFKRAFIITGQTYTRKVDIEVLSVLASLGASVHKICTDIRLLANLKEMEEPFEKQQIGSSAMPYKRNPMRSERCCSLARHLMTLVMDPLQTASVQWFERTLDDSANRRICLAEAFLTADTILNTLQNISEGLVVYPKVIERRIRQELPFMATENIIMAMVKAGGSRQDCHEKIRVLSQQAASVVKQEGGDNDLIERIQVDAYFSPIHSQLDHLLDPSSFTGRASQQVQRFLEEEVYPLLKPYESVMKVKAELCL
# UniProt P23526: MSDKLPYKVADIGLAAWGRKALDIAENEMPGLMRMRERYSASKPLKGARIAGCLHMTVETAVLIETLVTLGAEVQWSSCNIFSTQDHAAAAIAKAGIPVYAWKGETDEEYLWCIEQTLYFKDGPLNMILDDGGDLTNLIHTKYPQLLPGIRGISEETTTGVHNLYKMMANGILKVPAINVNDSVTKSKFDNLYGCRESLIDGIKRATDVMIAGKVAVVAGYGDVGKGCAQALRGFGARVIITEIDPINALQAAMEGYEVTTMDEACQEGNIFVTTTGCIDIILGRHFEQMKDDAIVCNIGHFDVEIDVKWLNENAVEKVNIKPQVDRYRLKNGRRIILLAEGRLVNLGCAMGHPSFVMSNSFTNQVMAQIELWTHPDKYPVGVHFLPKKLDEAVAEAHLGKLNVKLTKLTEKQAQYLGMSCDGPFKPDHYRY
# UniProt Q9UIJ7: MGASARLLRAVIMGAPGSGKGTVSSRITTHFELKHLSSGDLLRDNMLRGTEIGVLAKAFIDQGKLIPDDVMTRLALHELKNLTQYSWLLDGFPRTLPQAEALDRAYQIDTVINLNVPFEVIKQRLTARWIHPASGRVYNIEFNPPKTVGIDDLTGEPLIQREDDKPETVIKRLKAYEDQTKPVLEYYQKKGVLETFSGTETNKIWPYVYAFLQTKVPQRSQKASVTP
# UniProt Q8N142: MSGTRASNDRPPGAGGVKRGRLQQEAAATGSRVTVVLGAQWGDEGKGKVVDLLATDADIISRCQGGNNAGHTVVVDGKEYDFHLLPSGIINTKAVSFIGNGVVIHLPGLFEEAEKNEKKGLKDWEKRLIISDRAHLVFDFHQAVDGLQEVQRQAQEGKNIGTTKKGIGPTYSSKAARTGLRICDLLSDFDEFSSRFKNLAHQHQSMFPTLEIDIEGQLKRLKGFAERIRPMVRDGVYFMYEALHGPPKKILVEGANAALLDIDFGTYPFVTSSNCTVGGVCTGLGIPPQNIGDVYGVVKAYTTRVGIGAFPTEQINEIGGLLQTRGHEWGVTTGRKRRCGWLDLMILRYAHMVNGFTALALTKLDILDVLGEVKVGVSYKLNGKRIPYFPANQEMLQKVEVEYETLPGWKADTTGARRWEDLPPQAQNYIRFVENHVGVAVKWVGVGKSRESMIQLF
# UniProt Q9BRQ8: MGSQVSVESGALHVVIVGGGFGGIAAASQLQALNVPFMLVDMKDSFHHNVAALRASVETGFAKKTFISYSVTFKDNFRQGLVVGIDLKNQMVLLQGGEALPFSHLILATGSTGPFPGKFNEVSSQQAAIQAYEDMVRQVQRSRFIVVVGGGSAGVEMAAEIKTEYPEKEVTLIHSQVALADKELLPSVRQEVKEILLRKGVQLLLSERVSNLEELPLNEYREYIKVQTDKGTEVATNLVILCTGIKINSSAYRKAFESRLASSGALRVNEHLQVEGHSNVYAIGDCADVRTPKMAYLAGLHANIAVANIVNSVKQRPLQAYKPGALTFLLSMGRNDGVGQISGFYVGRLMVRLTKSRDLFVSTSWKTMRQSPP
# UniProt Q03154: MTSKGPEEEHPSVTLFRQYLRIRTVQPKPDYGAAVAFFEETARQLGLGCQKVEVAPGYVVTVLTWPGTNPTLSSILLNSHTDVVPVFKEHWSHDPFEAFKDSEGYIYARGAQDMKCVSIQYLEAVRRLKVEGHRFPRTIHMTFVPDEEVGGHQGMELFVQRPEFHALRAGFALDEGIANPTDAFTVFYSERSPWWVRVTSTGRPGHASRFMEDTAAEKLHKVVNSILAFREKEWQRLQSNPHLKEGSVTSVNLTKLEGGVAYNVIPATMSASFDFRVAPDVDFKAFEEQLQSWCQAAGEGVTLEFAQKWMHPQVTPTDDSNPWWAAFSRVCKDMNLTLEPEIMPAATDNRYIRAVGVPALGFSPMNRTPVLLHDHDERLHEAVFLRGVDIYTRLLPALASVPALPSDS
# This is one part of the list.
# Key:
# Assay in all cases: log2 fold change, soluble protein after heating vs DMSO (PISA); higher = thermal stabilisation; K562 lysate, 10 uM; active = over 0.2 and 3.5 SD of the protein, either way, in both replicates (recomputed)
# erlotinib = compound: C#Cc1cccc(Nc2ncnc3cc(OCCOC)c(OCCOC)cc23)c1 [erlotinib]
# Summary of the method: (§1)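 Dounce homogenisation of K562 pellets in PBS pH 7.4 with 1 mM MgCl2 produced a crude extract, used at 1 mg/mL protein. Exposure to 10 μM compound lasted 30 min, and aliquots were then heated for 3 min across 48°C-58°C, pooled and brought to 0.5% NP-40 at 4°C. The supernatant after 21,000xg for 90 min was quantified by TMTpro 16plex LC-MS/MS with channel sums equalised. Duplicate values are given as log-two fold change in thermal stability relative to solvent controls.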
# [1] = compound: C/C(=N\NC(=O)C1=CC(=CC=C1)S(=O)(=O)N2CCOCC2)/C3=C(C=CC(=C3)Cl)O
# Summary of the method: as §1
# [2] = compound: C1=CC(=CC=C1C2=NC3=C(N2)C=C(C=C3)C(=O)N)OC4=CC=C(C=C4)Cl
# Summary of the method: as §1
# [3] = compound: C1=CC2=C(C=CC(=C2)/C=C\3/C(=O)NC(=NCC4=CC=CS4)S3)N=C1
# Summary of the method: as §1
# [4] = compound: C1=CC2=NC=CN=C2C=C1/C=C/3\C(=O)NC(=O)S3
# Summary of the method: as §1
# [5] = compound: C1=CC=C(C=C1)C2=NC(=C(N2)C3=CC=NC=C3)C4=CC(=C(C=C4)Cl)O
# Summary of the method: as §1
# [6] = compound: C1=CC=C2C(=C1)C3=NNC4=CC=CC(=C43)C2=O
# Summary of the method: as §1
# [7] = compound: C1CCN(C1)C(=O)NC2=CC=CC(=C2)NC3=NC=C(C(=N3)NCCC4=CN=CN4)Br
# Summary of the method: as §1
# [8] = compound: C1CN(CCC1(CC2=CC=C(C=C2)Cl)N)C3=NC=NC4=C3C=CN4
# Summary of the method: as §1
# IRAK-1-4 Inhibitor I = compound: C1COCCN1CCN2C3=CC=CC=C3N=C2NC(=O)C4=CC(=CC=C4)[N+](=O)[O-] [IRAK-1-4 Inhibitor I]
# Summary of the method: as §1
# ibrutinib = compound: C=CC(=O)N1CCC[C@@H](n2nc(-c3ccc(Oc4ccccc4)cc3)c3c(N)ncnc32)C1 [ibrutinib]
# Summary of the method: as §1
# [9] = compound: CC(=O)c1cnc2ccc(-c3cc(Cl)c(O)c(Cl)c3)nc2c1N[C@H]1CC[C@H](CN(C)C)CC1
# Summary of the method: as §1
# ralimetinib = compound: CC(C)(C)Cn1c(N)nc2ccc(-c3[nH]c(C(C)(C)C)nc3-c3ccc(F)cc3)nc21 [ralimetinib]
# Summary of the method: as §1
# [10] = compound: CC(C)(O)CC(=O)NCCn1ccc2ncnc(Nc3ccc(Oc4cccc(C(F)(F)F)c4)c(Cl)c3)c21
# Summary of the method: as §1
# [11] = compound: CC(C)C1=C2N=C(C=C(N2N=C1)NCC3=CC=CC=C3)NCCCCCCN
# Summary of the method: as §1
# [12] = compound: CC1=C(C(CC(=O)N1)C2=CC=C(C=C2)C(F)(F)F)C(=O)NC3=C(C=C4C(=C3)C=NN4)F
# Summary of the method: as §1
# [13] = compound: CC1=C(C2=C(C=C1)C(=O)C3=CC=CC=C3N2CCCN)C
# Summary of the method: as §1
# [14] = compound: CC1=C(C=C(C=C1)NC(=O)C2=CC(=CC=C2)C(C)(C)C#N)NC3=CC4=C(C=C3)N=CN(C4=O)C
# Summary of the method: as §1
# [15] = compound: CC1=C(C=C(C=C1)NC(=O)C2=CC(=CC=C2)N(C)C)NC(=O)C3=CC=C(C=C3)O
# Summary of the method: as §1
# [16] = compound: CC1=CC=C(C=C1)SC2=C3C=C(SC3=CN=C2)C(=O)N
# Summary of the method: as §1
Target,log2 fold change (erlotinib),log2 fold change [1],log2 fold change [2],log2 fold change [3],log2 fold change [4],log2 fold change [5],log2 fold change [6],log2 fold change [7],log2 fold change [8],log2 fold change (IRAK-1-4 Inhibitor I),log2 fold change (ibrutinib),log2 fold change [9],log2 fold change (ralimetinib),log2 fold change [10],log2 fold change [11],log2 fold change [12],log2 fold change [13],log2 fold change [14],log2 fold change [15],log2 fold change [16]
ACOT7 isoform 7 (UniProt O00154),inactive: 0.003,inactive: 0.001,inactive: 0.013,inactive: -0.005,inactive: 0.012,inactive: 0.027,inactive: 0.016,inactive: -0.009,inactive: -0.001,inactive: 0.016,inactive: 0.025,inactive: -0.006,inactive: -0.027,inactive: -0.035,inactive: -0.008,inactive: -0.002,inactive: 0.012,inactive: 0.039,inactive: -0.017,inactive: -0.015
AKAP11 (UniProt Q9UKA4),inactive: 0.114,inactive: 0.232,inactive: 0.037,inactive: 0.095,inactive: 0.016,inactive: 0.059,active: -0.361,inactive: -0.064,inactive: 0.017,inactive: -0.071,inactive: 0.032,inactive: -0.111,inactive: 0.058,inactive: -0.068,inactive: 0.054,inactive: 0.065,inactive: -0.015,inactive: -0.002,inactive: 0.003,inactive: 0.085
AK1 (UniProt P00568),inactive: -0.023,inactive: 0.002,inactive: 0.014,inactive: -0.036,inactive: 0.002,inactive: -0.004,inactive: 0.047,inactive: 0.067,inactive: -0.003,inactive: -0.002,inactive: -0.001,inactive: 0.006,inactive: 0.006,inactive: -0.021,inactive: -0.029,inactive: -0.008,inactive: 0.043,inactive: -0.024,inactive: -0.002,inactive: 0.009
AHNAK (UniProt Q09666),inactive: -0.002,inactive: 0.045,inactive: 0.044,inactive: -0.009,inactive: -0.037,inactive: 0.019,inactive: 0.012,inactive: -0.003,inactive: -0.013,inactive: 0.012,inactive: -0.005,inactive: -0.023,inactive: -0.007,inactive: 0.026,inactive: 0.024,inactive: -0.001,inactive: 0,inactive: 0.001,inactive: -0.004,inactive: -0.01
ADPRH (UniProt P54922),inactive: 0.075,inactive: 0.175,inactive: 0.005,inactive: 0.192,inactive: 0.032,inactive: -0.073,inactive: 0.037,inactive: -0.086,inactive: -0.02,inactive: -0.005,inactive: 0.046,inactive: 0.01,inactive: -0.001,inactive: 0,inactive: 0.016,inactive: 0.049,inactive: 0.005,inactive: -0.099,inactive: -0.017,inactive: -0.117
ADD2 (UniProt P35612),inactive: -0.017,inactive: 0.009,inactive: 0.019,inactive: -0.008,inactive: -0.016,inactive: 0.011,inactive: -0.02,inactive: -0.034,inactive: -0.019,inactive: -0.008,inactive: -0.004,inactive: 0.001,inactive: 0.012,inactive: -0.014,inactive: -0.006,inactive: -0.024,inactive: -0.004,inactive: 0.011,inactive: 0.015,inactive: -0.016
ACTA1 (UniProt P68133),inactive: 0,inactive: 0.012,inactive: 0.017,inactive: -0.024,inactive: -0.035,inactive: -0.02,inactive: -0.037,inactive: 0.015,inactive: 0.051,inactive: -0.016,inactive: -0.021,inactive: 0,inactive: -0.006,inactive: -0.018,inactive: 0.037,inactive: -0.03,inactive: -0.005,inactive: -0.011,inactive: 0.01,inactive: -0.002
AKAP12 (UniProt Q02952),inactive: 0.095,inactive: -0.155,inactive: -0.101,inactive: -0.096,inactive: 0.098,inactive: -0.008,inactive: -0.005,inactive: 0.095,inactive: 0.175,inactive: 0.047,inactive: 0.056,inactive: -0.06,inactive: -0.063,inactive: 0.031,inactive: 0.083,inactive: -0.17,inactive: 0.049,inactive: 0.003,inactive: -0.073,inactive: -0.01
ACTR3 (UniProt P61158),inactive: -0.018,inactive: -0.009,inactive: 0.015,inactive: 0.003,inactive: -0.008,inactive: -0.006,inactive: -0.023,inactive: -0.012,inactive: -0.01,inactive: 0.027,inactive: 0.009,inactive: -0.009,inactive: 0.042,inactive: 0.015,inactive: -0.013,inactive: 0.007,inactive: 0.056,inactive: -0.022,inactive: 0.006,inactive: -0.013
ADSL (UniProt P30566),inactive: -0.01,inactive: -0.038,inactive: 0.052,inactive: -0.009,inactive: -0.005,inactive: -0.009,inactive: 0.015,inactive: 0.011,inactive: 0.02,inactive: 0.007,inactive: 0.002,inactive: 0.007,inactive: -0.008,inactive: 0.002,inactive: -0.006,inactive: -0.016,inactive: -0.019,inactive: -0.038,inactive: 0.004,inactive: -0.007
AHCY (UniProt P23526),inactive: -0.003,inactive: 0.046,inactive: 0.016,inactive: -0.019,inactive: -0.003,inactive: 0.022,inactive: 0.007,inactive: 0.008,inactive: -0.002,inactive: 0.015,inactive: 0.005,inactive: -0.01,inactive: 0.008,inactive: 0.052,inactive: 0.001,inactive: -0.038,inactive: 0.001,inactive: -0.002,inactive: -0.026,inactive: 0.003
ADNP (UniProt Q9H2P0),inactive: -0.004,inactive: 0.025,inactive: 0.012,inactive: -0.013,inactive: -0.051,inactive: -0.022,inactive: -0.114,inactive: 0.008,inactive: -0.034,inactive: 0.006,inactive: 0.002,inactive: -0.009,inactive: 0.024,inactive: 0.005,inactive: -0.02,inactive: 0.059,inactive: -0.081,inactive: 0.039,inactive: 0.016,inactive: 0.015
AK3 (UniProt Q9UIJ7),inactive: -0.028,inactive: -0.014,inactive: 0.001,inactive: -0.008,inactive: -0.02,inactive: -0.018,inactive: 0.005,inactive: 0.004,inactive: 0.013,inactive: 0,inactive: -0.004,inactive: 0.007,inactive: -0.029,inactive: 0.003,inactive: 0.014,inactive: -0.008,inactive: 0.005,inactive: -0.032,inactive: -0.033,inactive: 0.008
ADSS1 (UniProt Q8N142),inactive: -0.014,inactive: -0.02,inactive: 0.027,inactive: 0.023,inactive: -0.076,inactive: -0.018,inactive: 0.007,inactive: 0.01,inactive: 0.017,inactive: 0.067,inactive: 0.018,inactive: 0.009,inactive: -0.018,inactive: -0.028,inactive: 0.005,inactive: -0.029,inactive: -0.034,inactive: 0.017,inactive: -0.019,inactive: 0
AIFM2 (UniProt Q9BRQ8),inactive: -0.094,inactive: 0,inactive: 0.224,inactive: 0.071,inactive: -0.117,inactive: 0.117,inactive: 0.068,inactive: -0.025,inactive: 0.018,inactive: -0.01,inactive: -0.016,inactive: -0.075,inactive: 0.028,active: 0.643,inactive: 0.275,inactive: -0.033,inactive: -0.161,inactive: -0.04,inactive: -0.051,inactive: 0.024
ACY1 (UniProt Q03154),inactive: -0.032,inactive: 0.01,inactive: -0.01,inactive: 0.01,inactive: 0.009,inactive: -0.015,inactive: 0.059,inactive: 0.002,inactive: -0.017,inactive: -0.008,inactive: 0.057,inactive: 0.009,inactive: 0.027,inactive: 0.022,inactive: 0.005,inactive: -0.013,inactive: 0.042,inactive: -0.036,inactive: -0.02,inactive: -0.011

# Not a retest: entries from further up.
Target,log2 fold change (erlotinib),log2 fold change [1],log2 fold change [2],log2 fold change [3],log2 fold change [4],log2 fold change [5],log2 fold change [6],log2 fold change [7],log2 fold change [8],log2 fold change (IRAK-1-4 Inhibitor I),log2 fold change (ibrutinib),log2 fold change [9],log2 fold change (ralimetinib),log2 fold change [10],log2 fold change [11],log2 fold change [12],log2 fold change [13],log2 fold change [14],log2 fold change [15],log2 fold change [16]
ACOT7 isoform 7 (UniProt O00154),inactive: 0.003,inactive: 0.001,inactive: 0.013,inactive: -0.005,inactive: 0.012,inactive: 0.027,inactive: 0.016,inactive: -0.009,inactive: -0.001,inactive: 0.016,inactive: 0.025,inactive: -0.006,inactive: -0.027,inactive: -0.035,inactive: -0.008,inactive: -0.002,inactive: 0.012,inactive: 0.039,inactive: -0.017,inactive: -0.015
AKAP11 (UniProt Q9UKA4),inactive: 0.114,inactive: 0.232,inactive: 0.037,inactive: 0.095,inactive: 0.016,inactive: 0.059,active: -0.361,inactive: -0.064,inactive: 0.017,inactive: -0.071,inactive: 0.032,inactive: -0.111,inactive: 0.058,inactive: -0.068,inactive: 0.054,inactive: 0.065,inactive: -0.015,inactive: -0.002,inactive: 0.003,inactive: 0.085
